Substitutions are numbered along the chain they refer to. Results are given in words; binding and its absence hold for the method and conditions named. In cells and extracts the contact can be indirect. Some entries that bind do so weakly or less than the wild type. For part of these data: Where a sequence is shown, tags or fusion partners need not be part of it.
How the values were obtained:
[1] = target: T1, NRF2 (human (endogenous in BT474-TR and SKBR3-TR)) (UniProt Q16236); experiment: co-IP; anti-NRF2 antibody and protein A/G magnetic beads added to lysates of BT474-TR and SKBR3-TR cells, 5 h at 4 °C; endogenous proteins; also in circ-β-TrCP-silenced cells transfected with circ-β-TrCP vectors (wild type or start codon mutant)
T1 sequence: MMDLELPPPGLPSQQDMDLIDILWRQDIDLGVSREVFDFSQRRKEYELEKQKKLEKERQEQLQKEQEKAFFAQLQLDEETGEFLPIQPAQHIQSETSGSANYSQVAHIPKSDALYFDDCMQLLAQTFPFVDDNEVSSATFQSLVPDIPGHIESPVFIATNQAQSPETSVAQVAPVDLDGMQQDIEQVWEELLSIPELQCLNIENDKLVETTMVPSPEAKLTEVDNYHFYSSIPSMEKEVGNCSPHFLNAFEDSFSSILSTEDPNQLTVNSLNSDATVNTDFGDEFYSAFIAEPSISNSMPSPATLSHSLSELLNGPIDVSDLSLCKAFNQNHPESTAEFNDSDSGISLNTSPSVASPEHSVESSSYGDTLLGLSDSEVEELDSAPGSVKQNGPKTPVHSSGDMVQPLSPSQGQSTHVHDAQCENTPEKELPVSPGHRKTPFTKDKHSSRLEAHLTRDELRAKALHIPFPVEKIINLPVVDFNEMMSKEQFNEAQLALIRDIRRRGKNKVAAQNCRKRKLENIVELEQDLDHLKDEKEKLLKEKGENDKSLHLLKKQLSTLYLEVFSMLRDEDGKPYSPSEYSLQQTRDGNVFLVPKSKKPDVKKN

Chains of the proteins cited; added tags and fusions are not shown.
UniProt P63208: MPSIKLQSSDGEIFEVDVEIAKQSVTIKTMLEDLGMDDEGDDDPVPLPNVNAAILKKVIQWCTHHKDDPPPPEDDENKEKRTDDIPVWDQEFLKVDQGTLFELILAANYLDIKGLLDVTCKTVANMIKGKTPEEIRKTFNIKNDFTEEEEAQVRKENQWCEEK
UniProt Q9Y297: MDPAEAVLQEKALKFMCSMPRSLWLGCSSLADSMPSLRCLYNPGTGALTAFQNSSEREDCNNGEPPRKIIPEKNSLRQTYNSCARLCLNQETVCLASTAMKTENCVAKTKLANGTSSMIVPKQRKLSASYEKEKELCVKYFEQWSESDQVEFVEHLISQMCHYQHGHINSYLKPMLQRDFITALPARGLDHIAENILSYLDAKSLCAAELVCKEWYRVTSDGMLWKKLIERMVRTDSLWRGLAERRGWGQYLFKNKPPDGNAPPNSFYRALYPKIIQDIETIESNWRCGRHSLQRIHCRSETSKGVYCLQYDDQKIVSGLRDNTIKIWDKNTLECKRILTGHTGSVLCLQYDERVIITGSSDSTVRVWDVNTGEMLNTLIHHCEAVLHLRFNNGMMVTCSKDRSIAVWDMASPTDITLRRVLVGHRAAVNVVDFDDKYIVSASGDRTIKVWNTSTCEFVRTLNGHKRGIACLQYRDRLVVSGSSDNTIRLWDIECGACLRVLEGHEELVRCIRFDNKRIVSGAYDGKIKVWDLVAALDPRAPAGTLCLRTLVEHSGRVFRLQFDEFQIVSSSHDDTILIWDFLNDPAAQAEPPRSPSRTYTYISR

[2] = target: T2, HA-NRF2-S4A4 (S344A/S347A/S351A/S356A) (human) (UniProt Q16236); experiment: co-IP; anti-HA affinity gel added to lysates of NRF2−/− cells transfected with HA-NRF2-WT or HA-NRF2-S4A4, 5 h at 4 °C; Western blot of β-TrCP, β-TrCP-343aa and HA
T2 sequence: T1 sequence with S344A, S347A, S351A, S356A

[3] = target: SKP1 (human (endogenous in BT474-TR and SKBR3-TR)) (UniProt P63208); experiment: co-IP; anti-SKP1 antibody and protein A/G magnetic beads added to lysates of BT474-TR and SKBR3-TR cells, 5 h at 4 °C; Western blot of SKP1, β-TrCP and β-TrCP-343aa; endogenous proteins

binding [1]: binds
binding [2]: no binding
binding [3]: binds
Substance: β-TrCP (from UniProt Q9Y297 1-605)
